The campaign covered roughly 300,000 compounds. About 3,700 (1.2%) were called active. Inconclusive results, whose numbers are uncertain, are shown with a selection of clear calls. Calls come from the whole dose curve; tested in HEK293 cells. Where the call is inconclusive, the potency comes from a doubtful curve fit.
Test: qHTS for Inhibitors of binding or entry into cells for Lassa Virus; note: nearly all actives have a fitted effect of over 50% in size
Settings: Lassa virus pseudotype entry inhibition, cell reporter; activity change, negative = inhibition: at 37.9 µM (top of the series) unless noted
% is set by controls: 0 for no effect and ±100 for the full control effect; potency is the fitted concentration of half-maximal effect.

Compound	Potency	activity change, negative = inhibition
C=CCn1c(Sc2ncc([N+](=O)[O-])s2)n[nH]c1=O	inconclusive: 25.1 µM [inhibitor, single point]	–
CC(=O)c1c(C)[nH]c(C(=O)NC2CCSc3ccccc32)c1C (centres undefined)	inconclusive: 3.98 µM [inhibitor, full curve]	–
COc1cc2c(cc1OC)C(=S)NC1(CCCC1)C2	–	inactive: -19.7%
O=C(CSc1ccc2nnc(CCNC(=O)c3ccccc3)n2n1)NCc1ccc(F)cc1	inconclusive: 6.31 µM [inhibitor, single point]	–
O=C(CSc1nccc(=O)[nH]1)NN(c1ccccc1)c1ccccc1	inconclusive: 35.5 µM [inhibitor, single point]	–
CCOc1ccc(NC(=O)C(C)Sc2nc3ncccc3o2)cc1 (centres undefined)	–	inactive: 24.5% [at 46.1 µM]
O=C(/C=C\Nc1ccccn1)c1ccccc1	active: 2.51 µM	–
CC(Oc1ccc(Cl)cc1Cl)C(=O)NCCN1CCOCC1 (centres undefined)	inconclusive: 2.06 µM [activator, single point]	–
CCOc1cc(Br)c(COc2ccc(C)nc2[N+](=O)[O-])cc1OCC	inconclusive: 15.8 µM [inhibitor, single point]	–
CC1CCN(S(=O)(=O)c2ccc3c(c2)N(CC(=O)NCCCN2CCCC(C)C2)C(=O)CS3)CC1 (centres undefined)	–	inactive: 6.54% [at 46.1 µM]
CC(C)NS(=O)(=O)c1ccc(CCC(=O)Nc2cc(Cl)ccc2Oc2ccccc2)cc1	inconclusive: 35.5 µM [inhibitor, single point]	–
CN(C)CCNCCCNc1c2ccccc2nc2cccc([N+](=O)[O-])c12	inconclusive: 0.0891 µM [inhibitor, full curve, poor fit]	–
CCCc1cc(=O)n2c([nH]c3ccccc32)c1C#N	inconclusive: 3.26 µM [inhibitor, single point]	–
CCC(Sc1nc(C)cc(C)n1)C(=O)NC1=NN=C(c2ccc(C)cc2)CS1 (centres undefined)	inconclusive: 23.1 µM [inhibitor, partial curve, poor fit]	–
COc1ccc(Cc2nc3ccc(C(=O)N4CCN(C)C(C)C4)cc3o2)cc1OC (centres undefined)	inconclusive: 0.562 µM [inhibitor, full curve, poor fit]	–
Cc1ncc(CN2CCCC(C(=O)Nc3ccc(-c4cccc(F)c4)cc3)C2)n1C (centres undefined)	inconclusive: 35.5 µM [inhibitor, single point]	–
CCOc1cc(/C=N/Nc2nc(-c3cccc(S(=O)(=O)N4CCCC4)c3)cs2)ccc1O	inconclusive: 25.1 µM [inhibitor, single point]	–
C/C(=N/NC(=O)c1ccc(Br)o1)C(C)C	inconclusive: 12.6 µM [activator, partial curve]	–
O=C(CN(C(=O)CCC(=O)Nc1nccs1)c1cccc(F)c1)NCc1ccccc1	inconclusive: 8.91 µM [inhibitor, partial curve, poor fit]	–
Cc1cccc(C)c1NC(=O)COC(=O)c1ccccc1Nc1ccccc1	inconclusive: 23.1 µM [activator, single point]	–
Cc1cccc(NC(=O)[C@@H]2CCCN2C2=NS(=O)(=O)c3ccccc32)c1C	–	inactive: -6.64%
CCOc1ccc(C(=O)OCC(=O)NCc2ccccc2)cc1OCC	inconclusive: 7.94 µM [inhibitor, partial curve]	–
COc1ccc(N(CC(=O)N/N=C/c2ccc(N(C)C)cc2)S(=O)(=O)c2ccccc2)cc1	inconclusive: 7.94 µM [inhibitor, partial curve, poor fit]	–

Compound	Potency	activity change, negative = inhibition
COc1cc(SC)ccc1C(=O)Nc1ccc(OCC(=O)N2CCOCC2)cc1	inconclusive: 7.94 µM [inhibitor, partial curve, poor fit]	–
O=C1C2C3C=CC(C3=C(c3ccccc3)c3ccccc3)C2C(=O)N1Cc1ccccc1 (centres undefined)	inconclusive: 35.5 µM [inhibitor, single point]	–
CCOC(=O)Cn1c(=O)c(F)cn(Cc2ccc(OC)c([N+](=O)[O-])c2)c1=O	–	inactive: -5.06%
Cc1nc(NC(=O)c2cccs2)ccc1Br	active: 6.31 µM	–
Cc1ccc(C)c(N(C(=O)CNC(=O)c2ccco2)C(C(=O)NC2CCCCC2)c2cccnc2)c1 (centres undefined)	inconclusive: 3.98 µM [inhibitor, full curve]	–
NS(=O)(=O)c1ccc(NC(=S)Nc2ccn(Cc3cccc4ccccc34)n2)cc1	active: 3.55 µM	–
COc1ccc(C(=O)NNC(=O)COc2ccc(Cl)cc2)c(OC)c1	–	inactive: 9.73%
COc1ccc(NCC(=O)N/N=C/C=C\c2ccccc2)cc1	inconclusive: 23.1 µM [inhibitor, partial curve, poor fit]	–
COc1ccc(-c2cc(-c3n[nH]c(=S)n3-c3cc(OC)ccc3OC)[nH]n2)cc1	–	inactive: -6.33%
Clc1ccc(CN2C3=NCCCN3c3ccccc32)cc1	–	inactive: -26.3%
O=C(O)c1ccc(N2CCN(C(c3ccccc3)c3ccccc3)CC2)c([N+](=O)[O-])c1	inconclusive: 35.5 µM [activator, single point]	–
CS(=O)(=O)CCNCc1coc(-c2ccc3ncnc(Nc4ccc(OCc5ccccc5)cc4)c3c2)c1	inconclusive: 11.2 µM [activator, single point]	–
CCOC(=O)C1=C(c2ccccc2)NC(=O)NC1c1cc(Br)c(O)c(OC)c1 (centres undefined)	inconclusive: 35.5 µM [inhibitor, single point]	–
Cc1cccc(C(=O)Nc2nc(-c3nnn(-c4cc(C)ccc4C)c3C)ns2)c1	–	inactive: -6.17% [at 46.1 µM]
O=C(CNC(=O)c1ccccc1F)N/N=C/c1cc(Br)ccc1OC(=O)/C=C/c1ccco1	inconclusive: 5.62 µM [inhibitor, full curve, poor fit]	–
O=[N+]([O-])c1ccc(NCCCN2CCOCC2)c(Cl)c1	inconclusive: 16.4 µM [activator, single point]	–
Cc1ccc(-c2nc3ccccc3[nH]2)cc1NC(=O)c1sc2cc(Cl)ccc2c1Cl	–	inactive: 13.9%
Cc1cc(C)n(-c2nc(Nc3ccccc3)nc(-n3nc(C)cc3C)n2)n1	–	inactive: -7.85%
COc1cccc(C2CC(=O)Nc3c2c(=O)n(C)c2nc4ccccc4n32)c1 (centres undefined)	–	inactive: 11.8% [at 46.1 µM]
C=CCn1c(C(C)NC(=O)c2ccc(C)cc2)n[nH]c1=S (centres undefined)	inconclusive: 6.31 µM [activator, single point]	–
CCN(C(=O)COC(=O)c1[nH]c(C)c(C(C)=O)c1C)C1CCS(=O)(=O)C1 (centres undefined)	–	inactive: 2.16%
CN(c1ccccc1)S(=O)(=O)c1ccc(Cl)c(C(=O)NCCc2c[nH]c3ccccc23)c1	inconclusive: 14.6 µM [inhibitor, partial curve, poor fit]	–
Cc1cccc(/C(N)=N/OC(=O)Cc2cccc3ccccc23)c1	inconclusive: 31.6 µM [activator, single point]	–

Reprinted at random: four entries already listed.
Compound	Potency	activity change, negative = inhibition
Cc1nc(NC(=O)c2cccs2)ccc1Br	active: 6.31 µM	–
C=CCn1c(C(C)NC(=O)c2ccc(C)cc2)n[nH]c1=S (centres undefined)	inconclusive: 6.31 µM [activator, single point]	–
COc1cc(SC)ccc1C(=O)Nc1ccc(OCC(=O)N2CCOCC2)cc1	inconclusive: 7.94 µM [inhibitor, partial curve, poor fit]	–
Cc1cccc(/C(N)=N/OC(=O)Cc2cccc3ccccc23)c1	inconclusive: 31.6 µM [activator, single point]	–

Further structures

Compound	Potency	activity change, negative = inhibition
CCOC(=O)C1CCN(C(=O)Cn2ncc3c([nH]c4ccccc43)c2=O)CC1	inactive	–
COc1nc(OC)nc(Oc2ccc([N+](=O)[O-])cc2Cl)n1	–	inactive: 12.2%
COc1ccc(-c2ccc(CCC(=O)O)n2-c2cc(Cl)ccc2O)cc1	inconclusive: 1.26 µM [inhibitor, full curve, poor fit]	–
O=C(Cn1c(=O)n(Cc2nc(-c3ccccc3)no2)c(=O)c2cc3c(cc21)OCO3)Nc1cccc(C(F)(F)F)c1	–	inactive: 27% [at 46.1 µM]
Cc1cc(C)n(CC(O)Cn2ccc3ccccc32)n1 (centres undefined)	–	inactive: 16.8%
COc1ccccc1-c1cc(C(F)(F)F)nc(S(=O)(=O)CCCC(=O)Nc2ccc(F)cc2F)n1	inconclusive: 20 µM [inhibitor, single point]	–
Cn1c(=O)c2[nH]c(Nc3ccccc3)nc2n(C)c1=O	inconclusive: 0.708 µM [activator, full curve, poor fit]	–
Nc1nc2ccc(Cl)cc2c2nc(-c3ccco3)nn12	inconclusive: 2.91 µM [inhibitor, full curve]	–
Cc1ccc(C)c(-n2c3nc(=O)[nH]c(=O)c-3cc3cc([N+](=O)[O-])ccc32)c1	active: 3.16 µM	–
CC1CCN(Cc2nnnn2CCCC(=O)N(C)C(C)c2ccccn2)CC1 (centres undefined)	inconclusive: 35.5 µM [activator, single point]	–
Cc1ccccc1CNC(=O)c1ccc2[nH]c(C)c(C)c2c1	inconclusive: 4.47 µM [inhibitor, full curve]	–
CCOC(=O)Cc1csc(NC(=O)c2cnc3sc(C)cn3c2=O)n1	inconclusive: 2.82 µM [activator, partial curve, poor fit]	–
COc1ccccc1CNC(=O)CCn1c(=O)[nH]c2ccsc2c1=O	–	inactive: 2.2%
COc1ccc(Cl)cc1C(=O)NNC(=O)CSc1nncn1C	–	inactive: 13.8% [at 46.1 µM]
O=C(NCCCC(=O)N1CCCCC1)c1ccc(Cl)cc1	–	inactive: -1.97%
CCOC(=O)c1cnc(N2CCN(c3ccc(C)cc3C)CC2)c2ccccc12	inconclusive: 3.16 µM [inhibitor, partial curve, poor fit]	–
CCCCn1c(O)c(C(C)=NCc2ccc3c(c2)OCO3)c(=O)[nH]c1=O	inconclusive: 35.5 µM [inhibitor, single point]	–
Cc1ccc(S(=O)(=O)N2CCC(C(=O)OCC(=O)N(C)CC(=O)Nc3ccc(F)cc3)CC2)cc1C	inconclusive: 1 µM [activator, full curve, poor fit]	–
NC(=O)c1ccc(NC(=O)COC(=O)c2ccc3ccccc3n2)cc1	–	inactive: -0.388% [at 46.1 µM]
CCOCc1cnc(C)nc1NCC(=O)c1c(C)[nH]c2cc(C)ccc12	–	inactive: -1.15%
COC(=O)Cn1nnc2c(cnn2-c2ccccc2)c1=O	–	inactive: -15.9%
CCc1ccc(CN(C)C(=O)C2CCC(=O)N(CC3CCCCC3)C2)cc1 (centres undefined)	inconclusive: 15.8 µM [inhibitor, single point]	–
COc1ccc(Nc2ccnc(Nc3ccc(OC)cc3)n2)cc1	inconclusive: 35.5 µM [inhibitor, single point]	–
